# According to paper PMC7947682:
# These are yes or no findings as the source states them, for the method shown. In cells and extracts the contact can be indirect. A yes stands for co-enrichment or nearness to the bait. Other partners may have been found. Where a sequence is shown, tags or fusion partners need not be part of it.
# T1: Avi-FOXA2 (UniProt Q9Y261)
# T1 sequence (chain, biotin on the Avi tag (biotin tagging system with co-expressed E. coli BirA)): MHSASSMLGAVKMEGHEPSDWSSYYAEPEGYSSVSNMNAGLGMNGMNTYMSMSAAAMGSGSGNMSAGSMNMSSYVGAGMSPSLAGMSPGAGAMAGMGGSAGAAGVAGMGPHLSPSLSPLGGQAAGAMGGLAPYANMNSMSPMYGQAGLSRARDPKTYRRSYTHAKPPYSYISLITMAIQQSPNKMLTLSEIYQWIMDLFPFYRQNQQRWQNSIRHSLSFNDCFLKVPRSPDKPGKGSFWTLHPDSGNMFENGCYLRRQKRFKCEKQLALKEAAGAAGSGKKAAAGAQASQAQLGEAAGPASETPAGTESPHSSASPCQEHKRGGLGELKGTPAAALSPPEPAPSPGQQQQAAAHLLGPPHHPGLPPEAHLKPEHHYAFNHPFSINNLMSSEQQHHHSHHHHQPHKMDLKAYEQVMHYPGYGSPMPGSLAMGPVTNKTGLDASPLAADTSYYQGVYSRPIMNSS
# Target: T1, Avi-FOXA2
# Assay: affinity purification with mass spectrometry; MCF-7 cells transfected with pAvi-FOXA2 and pEF1-BirA; lysate (150 mM NaCl, 1% NP-40, 50 mM Tris-HCl pH 7.4) on streptavidin resin overnight, washed four times; SDS-PAGE, trypsin digest, LTQ Orbitrap Velos
row,Binder,binding
1,"Isoform 1 of Histone-arginine methyltransferase CARM1 (protein, UniProt Q86X55-1 1-585) MAAAAAAVGPGAGGAGSAVPGGAGPCATVSVFPGARLLTIGDANGEIQRHAEQQALRLEVRAGPDSAGIALYSHEDVCVFKCSVSRETECSRVGKQSFIITLGCNSVLIQFATPNDFCSFYNILKTCRGHTLERSVFSERTEESSAVQYFQFYGYLSQQQNMMQDYVRTGTYQRAILQNHTDFKDKIVLDVGCGSGILSFFAAQAGARKIYAVEASTMAQHAEVLVKSNNLTDRIVVIPGKVEEVSLPEQVDIIISEPMGYMLFNERMLESYLHAKKYLKPSGNMFPTIGDVHLAPFTDEQLYMEQFTKANFWYQPSFHGVDLSALRGAAVDEYFRQPVVDTFDIRILMAKSVKYTVNFLEAKEGDLHRIEIPFKFHMLHSGLVHGLAFWFDVAFIGSIMTVWLSTAPTEPLTHWYQVRCLFQSPLFAKAGDTLSGTCLLIANKRQSYDISIVAQVDQTGSKSSNLLDLKNPFFRYTGTTPSPPPGSHYTSPSENMWNTGSTYNLSSGMAVAGMPTAYDLSSVIASGSSVGHNNLIPLGSSGAQGSGGGSTSAHYAVNSQFTMGGPAISMASPMSIPTNTMHYGS",binds
2,"Isoform 2 of Methylcrotonoyl-CoA carboxylase beta chain, mitochondrial (protein, UniProt Q9HCC0-2 23-525) YHGDSVASLGTQPDLGSALYQENYKQMKALVNQLHERVEHIKLGGGEKARALHISRGKLLPRERIDNLIDPGSPFLELSQFAGYQLYDNEEVPGGGIITGIGRVSGVECMIIANDATVKGGAYYPVTVKKQLRAQEIAMQNRLPCIYLVDSGGAYLPRQADVFPDRDHFGRTFYNQAIMSSKNIAQVKAATGEEVSAEDLGGADLHCRKSGVSDHWALDDHHALHLTRKVVRNLNYQKKLDVTIEPSEEPLFPADELYGIVGANLKRSFDVREVIARIVDGSRFTEFKAFYGDTLVTGFARIFGYPVGIVGNNGVLFSESAKKGTHFVQLCCQRNIPLLFLQNITGFMVGREYEAEGIAKDGAKMVAAVACAQVPKITLIIGGSYGAGNYGMCGRAYSPRFLYIWPNARISVMGGEQAANVLATITKDQRAREGKQFSSADEAALKEPIIKKFEEEGNPYYSSARVWDDGIIDPADTRLVLGLSFSAALNAPIEKTDFGIFRM",binds

# Results, then the binder that gave them:
row,binding,Binder
1,binds,"Isoform 3 of PERQ amino acid-rich with GYF domain-containing protein 2 (protein, UniProt Q6Y7W6-4 1-1286) MAAETQTLNFGPEWLRALSSGGSITSPPLSPALPKYKLADYRYGREEMLALFLKDNKIPSDLLDKEFLPILQEEPLPPLALVPFTEEEQRNFSMSVNSAAVLRLTGRGGGGTVVGAPRGRSSSRGRGRGRGECGFYQRSFDEVEGVFGRGGGREMHRSQSWEERGDRRFEKPGRKDVGRPNFEEGGPTSVGRKHEFIRSESENWRIFREEQNGEDEDGGWRLAGSRRDGERWRPHSPGWREHMERRRRFEFDFRDRDDERGYRRVRSGSGSIDDDRDSLPEWCLEDAEEEMGTFDSSGAFLSLKKVQKEPIPEEQEMDFRPVDEGEECSDSEGSHNEEAKEPDKTNKKEGEKTDRVGVEASEETPQTSSSSARPGTPSDHQSQEASQFERKDEPKTEQTEKAEEETRMENSLPAKVPSRGDEMVADVQQPLSQIPSDTASPLLILPPPVPNPSPTLRPVETPVVGAPGMGSVSTEPDDEEGLKHLEQQAEKMVAYLQDSALDDERLASKLQEHRAKGVSIPLMHEAMQKWYYKDPQGEIQGPFNNQEMAEWFQAGYFTMSLLVKRACDESFQPLGDIMKMWGRVPFSPGPAPPPHMGELDQERLTRQQELTALYQMQHLQYQQFLIQQQYAQVLAQQQKAALSSQQQQQLALLLQQFQTLKMRISDQNIIPSVTRSVSVPDTGSIWELQPTASQPTVWEGGSVWDLPLDTTTPGPALEQLQQLEKAKAAKLEQERREAEMRAKREEEERKRQEELRRQQEEILRRQQEEERKRREEEELARRKQEEALRRQREQEIALRRQREEEERQQQEEALRRLEERRREEEERRKQEELLRKQEEEAAKWAREEEEAQRRLEENRLRMEEEAARLRHEEEERKRKELEVQRQKELMRQRQQQQEALRRLQQQQQQQQLAQMKLPSSSTWGQQSNTTACQSQATLSLAEIQKLEEERERQLREEQRRQQRELMKALQQQQQQQQQKLSGWGNVSKPSGTTKSLLEIQQEEARQMQKQQQQQQQHQQPNRARNNTHSNLHTSIGNSVWGSINTGPPNQWASDLVSSIWSNADTKNSNMGFWDDAVKEVGPRNSTNKNKNNASLSKSVGVSNRQNKKVEEEEKLLKLFQGVNKAQDGFTQWCEQMLHALNTANNLDVPTFVSFLKEVESPYEVHDYIRAYLGDTSEAKEFAKQFLERRAKQKANQQRQQQQQPPQQPPQQPQQQDSVWGMNHSTLHSVFQTNQSNNQQSNFEAVQSGKKKKKQKMVRADPSLLGFSVNASSERLNMGEIETLDDY"
2,binds,"Matrin-3 (protein, UniProt P43243 1-847) MSKSFQQSSLSRDSQGHGRDLSAAGIGLLAAATQSLSMPASLGRMNQGTARLASLMNLGMSSSLNQQGAHSALSSASTSSHNLQSIFNIGSRGPLPLSSQHRGDADQASNILASFGLSARDLDELSRYPEDKITPENLPQILLQLKRRRTEEGPTLSYGRDGRSATREPPYRVPRDDWEEKRHFRRDSFDDRGPSLNPVLDYDHGSRSQESGYYDRMDYEDDRLRDGERCRDDSFFGETSHNYHKFDSEYERMGRGPGPLQERSLFEKKRGAPPSSNIEDFHGLLPKGYPHLCSICDLPVHSNKEWSQHINGASHSRRCQLLLEIYPEWNPDNDTGHTMGDPFMLQQSTNPAPGILGPPPPSFHLGGPAVGPRGNLGAGNGNLQGPRHMQKGRVETSRVVHIMDFQRGKNLRYQLLQLVEPFGVISNHLILNKINEAFIEMATTEDAQAAVDYYTTTPALVFGKPVRVHLSQKYKRIKKPEGKPDQKFDQKQELGRVIHLSNLPHSGYSDSAVLKLAEPYGKIKNYILMRMKSQAFIEMETREDAMAMVDHCLKKALWFQGRCVKVDLSEKYKKLVLRIPNRGIDLLKKDKSRKRSYSPDGKESPSDKKSKTDGSQKTESSTEGKEQEEKSGEDGEKDTKDDQTEQEPNMLLESEDELLVDEEEAAALLESGSSVGDETDLANLGDVASDGKKEPSDKAVKKDGSASAAAKKKLKKVDKIEELDQENEAALENGIKNEENTEPGAESSENADDPNKDTSENADGQSDENKDDYTIPDEYRIGPYQPNVPVGIDYVIPKTGFYCKLCSLFYTNEEVAKNTHCSSLPHYQKLKKFLNKLAEERRQKKET"
